Values from PubChem BioAssay AID1508597 (Cure First, 2020).
Test: 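Survival screen with siRNA in ovarian cancer cells derived from patients, with or without rucaparib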 (primary screen). System: human ovarian carcinoma lines grown from tumours: OCI-P5x (papillary serous) and OCI-C5x (clear cell). Reagent: siRNA pool against human genes, 1.25 pmol siRNA per well. Time to read-out: 72 h or 96 h, depending on the cell culture. Treatment: rucaparib 20 µM (about IC30) or vehicle, present until read-out. Rucaparib or vehicle: Rucaparib. Cell line: OCI-C5x (clear cell). Read-out: 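ATP luminescence measured at 72 or 96 h according to the culture, then normalised and expressed as percent viability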. Scale: viability, normalised: higher = more viable cells remaining. Rule for the call: 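Active when normalised viability falls below 80 percent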. Calls: active = viability under 80%; inactive = viability 80% or more.
This is a random part of the about 2,100 reagents, in one setting of the screen. 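Calls flag viability under 80% in either arm, not effects specific to rucaparib; the reference for percent is not stated.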 Entries without a mark were called inactive. Not stated in the record: the 100% reference.

gene	technical replicate	viability, normalised (%)
CHTOP (chromatin target of PRMT1)	1	39.4 (active)
CHTOP (chromatin target of PRMT1)	2	40.3 (active)
CHTOP (chromatin target of PRMT1)	3	35.1 (active)
TGFB1 (transforming growth factor beta 1)	1	75.3 (active)
TGFB1 (transforming growth factor beta 1)	2	60.5 (active)
TGFB1 (transforming growth factor beta 1)	3	55.8 (active)
RAD17 (RAD17 checkpoint clamp loader component)	1	54.2 (active)
RAD17 (RAD17 checkpoint clamp loader component)	2	50.5 (active)
RAD17 (RAD17 checkpoint clamp loader component)	3	59.5 (active)
USP3 (ubiquitin specific peptidase 3)	1	50 (active)
USP3 (ubiquitin specific peptidase 3)	2	58.5 (active)
USP3 (ubiquitin specific peptidase 3)	3	51.8 (active)
POLI (DNA polymerase iota)	1	52.7 (active)
POLI (DNA polymerase iota)	2	53.8 (active)
POLI (DNA polymerase iota)	3	42.6 (active)
NRBP1 (nuclear receptor binding protein 1)	1	49 (active)
NRBP1 (nuclear receptor binding protein 1)	2	55.6 (active)
NRBP1 (nuclear receptor binding protein 1)	3	68.5 (active)
DAP3 (death associated protein 3)	1	51.8 (active)
DAP3 (death associated protein 3)	2	46.3 (active)
DAP3 (death associated protein 3)	3	49.6 (active)
BNIP2 (BCL2 interacting protein 2)	1	49.7 (active)
BNIP2 (BCL2 interacting protein 2)	2	64.6 (active)
BNIP2 (BCL2 interacting protein 2)	3	69.6 (active)
TTBK1 (tau tubulin kinase 1)	1	64.5 (active)
TTBK1 (tau tubulin kinase 1)	2	45.6 (active)
TTBK1 (tau tubulin kinase 1)	3	51.1 (active)
H4C13 (H4 clustered histone 13)	1	39.1 (active)
H4C13 (H4 clustered histone 13)	2	41.7 (active)
H4C13 (H4 clustered histone 13)	3	51.4 (active)
CHIC1 (cysteine rich hydrophobic domain 1)	1	61.7 (active)
CHIC1 (cysteine rich hydrophobic domain 1)	2	41.2 (active)
CHIC1 (cysteine rich hydrophobic domain 1)	3	41.1 (active)
CSK (C-terminal Src kinase)	1	54 (active)
CSK (C-terminal Src kinase)	2	69.3 (active)
CSK (C-terminal Src kinase)	3	51.3 (active)
RRM2B	1	62.1 (active)
RRM2B	2	51.6 (active)
RRM2B	3	45.5 (active)
ALKBH2 (alkB homolog 2, alpha-ketoglutarate dependent dioxygenase)	1	34.3 (active)
ALKBH2 (alkB homolog 2, alpha-ketoglutarate dependent dioxygenase)	2	60.7 (active)
ALKBH2 (alkB homolog 2, alpha-ketoglutarate dependent dioxygenase)	3	32.9 (active)
MAP3K11 (mitogen-activated protein kinase kinase kinase 11)	1	51.2 (active)
MAP3K11 (mitogen-activated protein kinase kinase kinase 11)	2	48.8 (active)
MAP3K11 (mitogen-activated protein kinase kinase kinase 11)	3	54.6 (active)
PHF5A (PHD finger protein 5A)	1	37.8 (active)
PHF5A (PHD finger protein 5A)	2	29.5 (active)
PHF5A (PHD finger protein 5A)	3	35.5 (active)
FANCE (FA complementation group E)	1	57.4 (active)
FANCE (FA complementation group E)	2	51.9 (active)
FANCE (FA complementation group E)	3	43.7 (active)
PIWIL4 (piwi like RNA-mediated gene silencing 4)	1	51.1 (active)
PIWIL4 (piwi like RNA-mediated gene silencing 4)	2	48.5 (active)
PIWIL4 (piwi like RNA-mediated gene silencing 4)	3	29.3 (active)
PNCK (pregnancy up-regulated nonubiquitous CaM kinase)	1	55.2 (active)
PNCK (pregnancy up-regulated nonubiquitous CaM kinase)	2	53 (active)
PNCK (pregnancy up-regulated nonubiquitous CaM kinase)	3	58.7 (active)

7 successive entries from above:
gene	technical replicate	viability, normalised (%)
USP3 (ubiquitin specific peptidase 3)	3	51.8 (active)
POLI (DNA polymerase iota)	1	52.7 (active)
POLI (DNA polymerase iota)	2	53.8 (active)
POLI (DNA polymerase iota)	3	42.6 (active)
NRBP1 (nuclear receptor binding protein 1)	1	49 (active)
NRBP1 (nuclear receptor binding protein 1)	2	55.6 (active)
NRBP1 (nuclear receptor binding protein 1)	3	68.5 (active)
